Measurements published in paper PMC3529859 (Leukemia, 2012).

Legend:
Assay type in all cases: cell-based
HMC 1.1 cells = assay: CyQuant cell proliferation assay; conditions: Homo sapiens, 72 h, read-out: IC50 HMC 1.1 proliferation
HMC 1.2 cells = assay: CyQuant cell proliferation assay; conditions: Homo sapiens, 72 h, read-out: IC50 HMC 1.2 proliferation
[1] = test system: FcεRI-mediated degranulation of primary HuMCs; assay: FcεRI-mediated degranulation of HuMCs; conditions: Homo sapiens, read-out: IC50 FcεRI-mediated degranulation

SMILES: CO[C@@H]1[C@H](N(C)C(=O)c2ccccc2)C[C@H]2O[C@]1(C)n1c3ccccc3c3c4c(c5c6ccccc6n2c5c31)C(=O)NC4 [PKC 412]
- IC50 (HMC 1.1 cells): 135 nM
- IC50 (HMC 1.2 cells): 138 nM
- IC50 [1]: 21 nM
